Test results from PubChem BioAssay AID540276 (National Center for Advancing Translational Sciences (NCATS), 2011).
Values joined by “and” are separate entries in the source; they are usually repeats but may differ in a detail not shown here. Equal entries are not always repeated. Screen size: about 300,000 compounds; about 5,400 (1.8%) were called active. The shares of active, inactive and inconclusive entries below differ from those in the screen. The call rests on the fitted dose curve; tested in HEK293 cells. A potency beside an inconclusive call is a rough fit, not a confirmed value.

Test: qHTS for inhibitors of binding or entry into cells for Marburg Virus
Conditions: Marburg virus pseudotyped entry inhibition, cell reporter; activity change, negative = inhibition: at 37.8 µM (top of the series) unless noted
On the % scale 0 is the no-effect control and ±100 the full control effect; potency means the concentration at half of the fitted maximal effect.

Structure (SMILES)	Potency	activity change, negative = inhibition
O=[N+]([O-])c1ccc(NCc2ccc(Cl)cc2)c2ccncc12	inconclusive: 3.98 µM [inhibitor, full curve]	–
Cc1ccccc1-c1nc(CN2CCC(C(=O)NCCCN3CCCC3)CC2)c(C)o1	inactive and inconclusive: 9.2 µM [inhibitor, partial curve, poor fit]	–
CC(=O)N1CCc2c(sc3c2c(=O)n(Cc2ccccc2)c(=O)n3Cc2ccc(C)cc2)C1	inconclusive: 5.62 µM [inhibitor, single point]	–
CCc1ccc(NC(=O)CCc2ccc(CC)o2)cc1	inactive	–
COc1ccc(-c2nc(C#N)c(N3CCc4ccccc4C3)o2)cc1OC	inconclusive: 18.3 µM [inhibitor, single point]	–
COCc1nn2cc(-c3ccc(C)cc3)nc2s1	–	inconclusive: 2.52% [activator] [at 46.1 µM]
NC(=S)NNC(=O)c1ccccc1	inconclusive: 2.31 µM [activator, partial curve]	–
COC(=O)c1cc(C#N)c(Oc2ccccc2)nc1C	inconclusive: 20 µM [activator, partial curve, poor fit]	–
O=C(NCC1CCCO1)c1ccccc1OCc1ccc(Cl)cc1 (configuration not stated)	inconclusive: 35.5 µM [inhibitor, partial curve, poor fit]	–
O=C1c2ccsc2SCCN1Cc1c(Cl)cccc1Cl	inconclusive: 35.5 µM [inhibitor, single point]	–
S=C(NCc1ccccc1)NCc1cccc(CNC(=S)NCc2ccccc2)c1	inconclusive: 18.3 µM [inhibitor, single point]	–
CCOc1ccc(OCC)c(NC(=O)CN2CCN(c3cccc(C)c3)CC2)c1	inconclusive: 5.62 µM [inhibitor, single point]	–
Clc1ccc(CNc2ccc(CNc3ncn[nH]3)cc2)c(Cl)c1	inconclusive: 20 µM [inhibitor, single point]	–
O=C(NCC1CCCO1)Nc1cccc(Cl)c1 (configuration not stated)	inconclusive: 15.8 µM [activator, single point]	–
O=C(CN1C(=O)S/C(=C\c2ccc(Cl)cc2)C1=O)NNC(=O)c1ccccc1O	inconclusive: 3.55 µM [activator, single point]	–
CCN(CC)S(=O)(=O)c1ccc(OC(C)C)c(NC(=O)C2=COCCO2)c1	inconclusive: 0.794 µM [inhibitor, partial curve, poor fit]	–
CCC1(C)CC2(CCCN(CCC(=O)c3ccccc3)C2)CCO1 (configuration not stated)	inconclusive: 25.9 µM [inhibitor, single point]	–

3 entries already listed, ordered by heavy-atom count, falling.
Structure (SMILES)	Potency	activity change, negative = inhibition
Cc1ccccc1-c1nc(CN2CCC(C(=O)NCCCN3CCCC3)CC2)c(C)o1	inactive and inconclusive: 9.2 µM [inhibitor, partial curve, poor fit]	–
CCOc1ccc(OCC)c(NC(=O)CN2CCN(c3cccc(C)c3)CC2)c1	inconclusive: 5.62 µM [inhibitor, single point]	–
CCc1ccc(NC(=O)CCc2ccc(CC)o2)cc1	inactive	–
